The list shows a part of the results.
Columns and labels:
Assay in all cases: log2 fold change, soluble protein after heating vs DMSO (PISA); higher = thermal stabilisation; K562 cells, 10 uM, 30 min; active = over 0.2 and 3.5 SD of the protein, either way, in both replicates (recomputed)
[1] = compound: CC1=C(C=C(C=C1)NC(=O)C2=CC(=CC=C2)C(C)(C)C#N)NC3=CC4=C(C=C3)N=CN(C4=O)C
Summary of the method: (§1)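 Thermal stability values are relative to control samples and come from duplicates. They are expressed as log2 fold changes. For measurement, K562 cells (2×10^6 cells/mL) received 10 μM compound for 30 min, and aliquots were heated for 3 min over 48°C-58°C, pooled, and extracted at 4°C in PBS with 0.5% NP-40. Soluble protein, the supernatant after 21,000xg for 90 min, was quantified by TMTpro 16plex LC-MS/MS with equalised channel sums.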

The chains behind the UniProt entries cited, without tags or fusion partners. Where a name states a change or a piece, a line headed by the entry shows the natural chain unless it says otherwise.
UniProt O95619, whole entry, looked up: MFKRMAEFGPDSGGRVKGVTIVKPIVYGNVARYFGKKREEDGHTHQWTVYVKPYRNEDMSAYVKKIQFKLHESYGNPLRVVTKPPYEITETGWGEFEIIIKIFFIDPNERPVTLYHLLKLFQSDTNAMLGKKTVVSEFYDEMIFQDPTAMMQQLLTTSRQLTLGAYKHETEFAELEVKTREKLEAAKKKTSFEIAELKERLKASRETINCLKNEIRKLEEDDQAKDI
UniProt Q9HBF4: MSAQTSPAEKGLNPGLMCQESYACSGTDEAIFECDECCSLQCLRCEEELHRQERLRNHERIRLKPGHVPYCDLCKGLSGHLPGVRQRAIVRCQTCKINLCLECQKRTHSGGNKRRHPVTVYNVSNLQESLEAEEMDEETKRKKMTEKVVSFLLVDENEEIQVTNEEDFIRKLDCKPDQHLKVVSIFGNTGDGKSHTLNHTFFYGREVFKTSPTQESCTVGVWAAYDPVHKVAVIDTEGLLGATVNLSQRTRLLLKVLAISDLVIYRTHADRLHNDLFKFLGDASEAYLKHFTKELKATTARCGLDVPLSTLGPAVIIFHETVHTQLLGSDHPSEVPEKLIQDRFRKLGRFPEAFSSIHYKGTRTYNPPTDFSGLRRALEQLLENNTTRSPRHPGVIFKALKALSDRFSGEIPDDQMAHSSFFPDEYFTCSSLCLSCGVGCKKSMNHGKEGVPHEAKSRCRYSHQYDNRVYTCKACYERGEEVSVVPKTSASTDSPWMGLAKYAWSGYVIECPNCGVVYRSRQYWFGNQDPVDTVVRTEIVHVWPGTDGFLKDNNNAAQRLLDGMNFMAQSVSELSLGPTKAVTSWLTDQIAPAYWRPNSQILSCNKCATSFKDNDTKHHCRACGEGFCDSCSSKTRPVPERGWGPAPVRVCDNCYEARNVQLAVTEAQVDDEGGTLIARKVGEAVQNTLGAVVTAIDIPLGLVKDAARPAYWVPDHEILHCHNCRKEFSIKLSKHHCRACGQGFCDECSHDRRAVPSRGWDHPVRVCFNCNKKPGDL
UniProt O43542: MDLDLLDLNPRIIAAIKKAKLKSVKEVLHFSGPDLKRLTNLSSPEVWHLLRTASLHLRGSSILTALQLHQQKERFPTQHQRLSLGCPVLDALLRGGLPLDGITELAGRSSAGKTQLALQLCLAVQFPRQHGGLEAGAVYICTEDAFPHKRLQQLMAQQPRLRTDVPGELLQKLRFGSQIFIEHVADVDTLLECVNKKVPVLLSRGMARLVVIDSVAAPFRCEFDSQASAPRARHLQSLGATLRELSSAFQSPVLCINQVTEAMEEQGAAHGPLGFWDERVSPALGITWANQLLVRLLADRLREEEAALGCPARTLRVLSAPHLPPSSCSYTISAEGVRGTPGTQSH
UniProt Q6NZY4: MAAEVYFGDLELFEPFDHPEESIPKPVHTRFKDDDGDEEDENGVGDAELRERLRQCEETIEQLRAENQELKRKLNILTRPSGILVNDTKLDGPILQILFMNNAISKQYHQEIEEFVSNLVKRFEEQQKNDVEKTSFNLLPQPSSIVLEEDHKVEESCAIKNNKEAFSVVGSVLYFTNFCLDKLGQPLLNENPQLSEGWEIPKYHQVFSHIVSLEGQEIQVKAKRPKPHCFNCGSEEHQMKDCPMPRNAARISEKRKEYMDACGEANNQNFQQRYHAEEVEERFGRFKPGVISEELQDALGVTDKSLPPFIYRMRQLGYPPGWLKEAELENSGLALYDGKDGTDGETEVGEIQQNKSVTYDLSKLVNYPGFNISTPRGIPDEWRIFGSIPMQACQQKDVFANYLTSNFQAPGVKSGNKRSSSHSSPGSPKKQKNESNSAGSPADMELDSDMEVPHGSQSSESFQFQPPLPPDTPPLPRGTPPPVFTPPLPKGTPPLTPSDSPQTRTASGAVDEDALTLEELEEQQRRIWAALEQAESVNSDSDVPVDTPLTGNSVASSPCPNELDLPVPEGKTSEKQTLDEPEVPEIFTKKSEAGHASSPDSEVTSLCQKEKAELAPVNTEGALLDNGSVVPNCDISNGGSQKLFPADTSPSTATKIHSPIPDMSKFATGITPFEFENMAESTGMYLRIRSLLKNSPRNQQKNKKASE
UniProt Q96TA2: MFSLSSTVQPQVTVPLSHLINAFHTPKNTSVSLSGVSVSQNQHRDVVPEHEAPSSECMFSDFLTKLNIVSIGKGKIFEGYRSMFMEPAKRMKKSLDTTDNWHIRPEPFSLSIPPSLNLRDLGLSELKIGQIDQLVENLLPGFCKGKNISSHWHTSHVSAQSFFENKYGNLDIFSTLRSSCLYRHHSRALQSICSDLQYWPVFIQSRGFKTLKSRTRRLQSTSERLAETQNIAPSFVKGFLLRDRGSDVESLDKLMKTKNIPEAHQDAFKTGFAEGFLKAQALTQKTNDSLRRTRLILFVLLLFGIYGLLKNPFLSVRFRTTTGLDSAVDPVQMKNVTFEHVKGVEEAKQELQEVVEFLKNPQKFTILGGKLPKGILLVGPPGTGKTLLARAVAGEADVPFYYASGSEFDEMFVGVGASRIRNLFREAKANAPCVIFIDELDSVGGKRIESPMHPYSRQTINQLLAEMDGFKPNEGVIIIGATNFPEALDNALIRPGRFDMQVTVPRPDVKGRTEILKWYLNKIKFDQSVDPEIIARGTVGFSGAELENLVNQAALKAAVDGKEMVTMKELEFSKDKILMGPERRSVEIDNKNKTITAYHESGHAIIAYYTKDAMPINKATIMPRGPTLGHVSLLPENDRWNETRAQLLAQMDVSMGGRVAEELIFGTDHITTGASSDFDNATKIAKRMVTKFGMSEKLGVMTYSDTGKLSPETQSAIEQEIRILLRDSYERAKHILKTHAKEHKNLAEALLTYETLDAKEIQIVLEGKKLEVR
UniProt O43670: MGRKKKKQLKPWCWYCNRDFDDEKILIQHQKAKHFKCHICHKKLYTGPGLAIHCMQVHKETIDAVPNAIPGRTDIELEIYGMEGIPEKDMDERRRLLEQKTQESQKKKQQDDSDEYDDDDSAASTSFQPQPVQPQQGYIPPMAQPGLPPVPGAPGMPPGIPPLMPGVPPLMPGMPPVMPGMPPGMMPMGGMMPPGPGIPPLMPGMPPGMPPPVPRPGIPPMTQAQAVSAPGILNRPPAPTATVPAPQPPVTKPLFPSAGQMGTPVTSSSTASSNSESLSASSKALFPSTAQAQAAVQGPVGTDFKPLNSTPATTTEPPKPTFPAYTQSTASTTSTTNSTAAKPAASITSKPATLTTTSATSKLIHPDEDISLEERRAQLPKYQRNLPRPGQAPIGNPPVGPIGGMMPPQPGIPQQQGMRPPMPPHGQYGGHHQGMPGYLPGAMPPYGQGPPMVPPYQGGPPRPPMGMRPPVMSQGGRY
UniProt P16989, whole entry, looked up: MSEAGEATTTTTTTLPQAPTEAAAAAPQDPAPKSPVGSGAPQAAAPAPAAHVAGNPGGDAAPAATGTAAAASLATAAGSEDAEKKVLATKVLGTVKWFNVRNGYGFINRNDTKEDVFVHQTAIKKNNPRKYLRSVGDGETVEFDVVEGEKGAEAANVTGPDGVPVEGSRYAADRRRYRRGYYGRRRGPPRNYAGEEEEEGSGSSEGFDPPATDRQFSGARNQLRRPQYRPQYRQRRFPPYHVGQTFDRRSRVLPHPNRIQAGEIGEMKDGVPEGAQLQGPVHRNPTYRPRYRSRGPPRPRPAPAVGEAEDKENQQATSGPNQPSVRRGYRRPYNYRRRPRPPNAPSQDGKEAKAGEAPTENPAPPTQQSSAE
UniProt Q7Z739: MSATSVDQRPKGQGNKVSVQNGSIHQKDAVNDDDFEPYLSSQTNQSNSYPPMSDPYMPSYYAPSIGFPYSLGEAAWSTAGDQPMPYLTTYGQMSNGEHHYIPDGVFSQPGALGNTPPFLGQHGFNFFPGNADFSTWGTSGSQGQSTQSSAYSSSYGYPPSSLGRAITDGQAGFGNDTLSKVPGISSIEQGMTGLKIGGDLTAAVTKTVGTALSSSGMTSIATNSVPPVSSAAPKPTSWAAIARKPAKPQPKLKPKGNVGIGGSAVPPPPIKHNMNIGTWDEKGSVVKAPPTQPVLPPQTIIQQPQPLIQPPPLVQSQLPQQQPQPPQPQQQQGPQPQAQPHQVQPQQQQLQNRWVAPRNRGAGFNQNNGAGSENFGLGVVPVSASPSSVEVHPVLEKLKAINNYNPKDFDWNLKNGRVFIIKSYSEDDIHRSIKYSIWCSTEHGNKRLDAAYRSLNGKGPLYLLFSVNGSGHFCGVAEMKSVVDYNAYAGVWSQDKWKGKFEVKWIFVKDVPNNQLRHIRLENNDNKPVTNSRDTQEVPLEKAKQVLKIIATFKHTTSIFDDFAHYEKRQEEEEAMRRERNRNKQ
UniProt Q13426: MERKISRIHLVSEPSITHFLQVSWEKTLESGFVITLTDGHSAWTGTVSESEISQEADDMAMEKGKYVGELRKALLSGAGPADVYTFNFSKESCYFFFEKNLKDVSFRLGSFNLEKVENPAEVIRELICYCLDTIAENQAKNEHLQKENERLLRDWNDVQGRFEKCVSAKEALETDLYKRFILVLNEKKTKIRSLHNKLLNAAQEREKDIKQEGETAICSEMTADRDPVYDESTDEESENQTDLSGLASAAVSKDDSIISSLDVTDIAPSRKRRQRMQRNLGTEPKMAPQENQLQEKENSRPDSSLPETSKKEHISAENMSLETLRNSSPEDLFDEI
UniProt Q9ULJ6: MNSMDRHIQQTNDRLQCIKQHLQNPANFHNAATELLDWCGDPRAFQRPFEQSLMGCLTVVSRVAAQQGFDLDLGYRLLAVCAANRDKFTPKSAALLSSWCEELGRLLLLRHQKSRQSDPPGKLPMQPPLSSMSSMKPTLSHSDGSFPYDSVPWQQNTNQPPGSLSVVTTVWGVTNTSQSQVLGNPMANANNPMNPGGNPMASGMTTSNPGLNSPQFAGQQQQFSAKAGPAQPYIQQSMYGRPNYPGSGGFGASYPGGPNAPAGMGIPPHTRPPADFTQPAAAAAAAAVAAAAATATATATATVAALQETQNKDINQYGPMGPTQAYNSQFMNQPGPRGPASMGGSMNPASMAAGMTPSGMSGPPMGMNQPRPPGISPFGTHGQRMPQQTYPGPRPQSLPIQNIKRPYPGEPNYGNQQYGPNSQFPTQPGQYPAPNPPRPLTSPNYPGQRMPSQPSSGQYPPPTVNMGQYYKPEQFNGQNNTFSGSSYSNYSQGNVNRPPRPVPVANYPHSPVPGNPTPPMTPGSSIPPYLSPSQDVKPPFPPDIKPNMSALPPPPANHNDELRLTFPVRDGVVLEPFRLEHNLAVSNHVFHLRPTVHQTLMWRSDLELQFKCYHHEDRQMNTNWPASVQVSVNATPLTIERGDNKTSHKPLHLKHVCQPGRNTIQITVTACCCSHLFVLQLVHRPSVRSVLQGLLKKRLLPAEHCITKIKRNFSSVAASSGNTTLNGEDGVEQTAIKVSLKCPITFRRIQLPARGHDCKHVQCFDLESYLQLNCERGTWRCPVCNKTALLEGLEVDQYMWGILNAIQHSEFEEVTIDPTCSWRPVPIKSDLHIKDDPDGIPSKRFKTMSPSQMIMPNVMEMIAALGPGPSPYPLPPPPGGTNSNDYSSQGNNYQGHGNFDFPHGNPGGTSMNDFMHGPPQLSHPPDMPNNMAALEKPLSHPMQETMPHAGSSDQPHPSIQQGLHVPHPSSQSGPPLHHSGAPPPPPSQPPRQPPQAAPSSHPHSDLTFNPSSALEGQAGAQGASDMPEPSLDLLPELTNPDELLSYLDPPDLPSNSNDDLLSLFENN
UniProt Q8NBI6: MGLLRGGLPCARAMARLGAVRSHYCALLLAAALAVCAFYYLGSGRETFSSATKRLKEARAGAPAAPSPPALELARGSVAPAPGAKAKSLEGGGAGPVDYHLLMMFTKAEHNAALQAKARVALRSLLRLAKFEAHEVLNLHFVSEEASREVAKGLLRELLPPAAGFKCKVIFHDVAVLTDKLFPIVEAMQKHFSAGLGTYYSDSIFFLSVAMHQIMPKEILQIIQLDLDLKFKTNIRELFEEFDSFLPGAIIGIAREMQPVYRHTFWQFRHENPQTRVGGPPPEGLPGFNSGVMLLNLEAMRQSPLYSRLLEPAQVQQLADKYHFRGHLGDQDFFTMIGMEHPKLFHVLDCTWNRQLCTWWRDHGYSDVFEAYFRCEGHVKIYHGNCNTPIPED
UniProt O15498: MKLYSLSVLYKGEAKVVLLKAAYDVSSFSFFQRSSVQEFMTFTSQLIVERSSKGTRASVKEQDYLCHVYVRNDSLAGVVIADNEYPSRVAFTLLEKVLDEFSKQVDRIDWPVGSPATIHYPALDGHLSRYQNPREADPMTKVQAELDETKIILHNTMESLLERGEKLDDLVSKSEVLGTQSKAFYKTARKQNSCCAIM
UniProt Q86U90: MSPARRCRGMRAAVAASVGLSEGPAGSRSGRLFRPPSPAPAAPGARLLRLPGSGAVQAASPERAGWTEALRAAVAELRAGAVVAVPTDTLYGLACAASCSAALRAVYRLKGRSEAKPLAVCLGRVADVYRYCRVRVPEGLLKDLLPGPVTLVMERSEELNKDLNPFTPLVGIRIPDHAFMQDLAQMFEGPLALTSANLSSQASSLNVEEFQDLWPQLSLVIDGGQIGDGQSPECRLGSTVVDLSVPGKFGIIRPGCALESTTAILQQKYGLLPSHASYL

[2] = compound: CC1=C(C=C(C=C1)NC(=O)C2=CC(=CC=C2)N(C)C)NC(=O)C3=CC=C(C=C3)O
Summary of the method: as §1

[3] = compound: CC1=CC=C(C=C1)SC2=C3C=C(SC3=CN=C2)C(=O)N
Summary of the method: as §1

[4] = compound: CC1=NC(=CC=C1)C2=C(N=C(N2)C(C)(C)C)C3=CC4=NC=CN=C4C=C3
Summary of the method: as §1

Nexturastat A = compound: CCCCN(Cc1ccc(C(=O)NO)cc1)C(=O)Nc1ccccc1 [Nexturastat A]
Summary of the method: as §1

vemurafenib = compound: CCCS(=O)(=O)Nc1ccc(F)c(C(=O)c2c[nH]c3ncc(-c4ccc(Cl)cc4)cc23)c1F [vemurafenib]
Summary of the method: as §1

[5] = compound: CCCS(=O)(=O)Nc1ccc(F)c(C(=O)c2c[nH]c3ncc(Cl)cc23)c1F
Summary of the method: as §1

[6] = compound: CCCc1cc(C)[nH]c(=O)c1CNC(=O)c1cc(-c2ccnc(N3CCN(C)CC3)c2)cc2c1cnn2C(C)C
Summary of the method: as §1

givinostat = compound: CCN(CC)Cc1ccc2cc(COC(=O)Nc3ccc(C(=O)NO)cc3)ccc2c1 [givinostat]
Summary of the method: as §1

barasertib = compound: CCN(CCCOc1ccc2c(Nc3cc(CC(=O)Nc4cccc(F)c4)[nH]n3)ncnc2c1)CCOP(=O)(O)O [barasertib]
Summary of the method: as §1

[7] = compound: CC[C@@H]1C(=O)N(C)c2cnc(Nc3ccc(C(=O)NC4CCN(C)CC4)cc3OC)nc2N1C1CCCC1
Summary of the method: as §1

volasertib = compound: CC[C@@H]1C(=O)N(C)c2cnc(Nc3ccc(C(=O)N[C@H]4CC[C@H](N5CCN(CC6CC6)CC5)CC4)cc3OC)nc2N1C(C)C [volasertib]
Summary of the method: as §1

[8] = compound: CC[C@H](C)N1C=C(C2=C(C=C(C=C21)C3=CN=C(C=C3)N4CCNCC4)C(=O)NCC5=C(C=C(NC5=O)C)C)C
Summary of the method: as §1

epoxomicin = compound: CC[C@H](C)[C@@H](C(=O)N[C@@H]([C@@H](C)O)C(=O)N[C@@H](CC(C)C)C(=O)[C@]1(CO1)C)NC(=O)[C@H]([C@@H](C)CC)N(C)C(=O)C [epoxomicin]
Summary of the method: as §1

[9] = compound: CCn1c(C(=O)N(C2CC2)C2CC2)cc2c3c(ncn3C)c(Nc3cc(C)n(C)n3)nc21
Summary of the method: as §1

[10] = compound: CCn1cc(-c2ccnc3[nH]c(-c4cccc(CN(C)C)c4)cc23)c(-c2ccc(NC(=O)N(C)C)cc2)n1
Summary of the method: as §1

[11] = compound: CN(C)CC(=O)Nc1ccc2[nH]c(=O)c3ccccc3c2c1
Summary of the method: as §1

rosiglitazone = compound: CN(CCOC1=CC=C(C=C1)C[C@H]2C(=O)NC(=O)S2)C3=CC=CC=N3 (racemic) [rosiglitazone]
Summary of the method: as §1

[12] = compound: CN1C2=C(C3=C1C(=O)N(N=C3)CC4=CC(=CC=C4)N)SC(=C2)S(=O)C
Summary of the method: as §1

[13] = compound: CN1CCC(CNc2ccc3ncc(-c4cccc(OC(F)(F)F)c4)n3n2)CC1
Summary of the method: as §1

Measured: log2 fold change

YEATS4 (UniProt O95619)
inactive: [1] 0.024 | [2] 0.03 | [3] -0.03 | [4] -0.003 | Nexturastat A -0.015 | vemurafenib -0.093 | [5] -0.025 | [6] 0.026 | givinostat -0.055 | barasertib 0.029 | [7] 0.057 | volasertib 0.012 | [8] 0.06 | epoxomicin -0.01 | [9] -0.016 | [10] 0 | [11] -0.021 | rosiglitazone 0.029 | [12] 0.003 | [13] -0.004

ZFYVE1 (UniProt Q9HBF4)
inactive: [1] -0.093 | [2] -0.035 | [3] -0.026 | [4] 0.026 | Nexturastat A -0.1 | vemurafenib -0.049 | [5] -0.107 | [6] -0.122 | givinostat 0.113 | barasertib 0.045 | [7] 0.108 | volasertib -0.072 | [8] 0.021 | epoxomicin 0.13 | [9] -0.082 | [10] -0.039 | [11] -0.071 | rosiglitazone 0.055 | [12] 0.04 | [13] -0.104

XRCC3 (UniProt O43542)
inactive: [1] -0.01 | [2] -0.032 | [3] -0.014 | [4] 0.074 | Nexturastat A -0.107 | vemurafenib 0.051 | [5] -0.094 | [6] -0.108 | givinostat -0.005 | barasertib -0.051 | [7] -0.04 | volasertib -0.021 | [8] 0.025 | epoxomicin -0.041 | [9] 0.032 | [10] -0.028 | [11] 0.064 | rosiglitazone 0.024 | [12] -0.069 | [13] -0.02

ZCCHC8 (UniProt Q6NZY4)
inactive: [1] -0.007 | [2] 0.007 | [3] 0.016 | [4] -0.001 | Nexturastat A -0.001 | vemurafenib -0.021 | [5] -0.015 | [6] -0.002 | givinostat -0.037 | barasertib -0.025 | [7] 0.046 | volasertib 0.107 | [8] 0.012 | epoxomicin 0.036 | [9] 0.021 | [10] -0.036 | [11] -0.004 | rosiglitazone 0.035 | [12] -0.039 | [13] -0.027

ZC3H4 (UniProt Q9UPT8)
inactive: [1] -0.061 | [2] -0.007 | [3] -0.027 | [4] -0.112 | Nexturastat A 0.238 | vemurafenib -0.082 | [5] -0.009 | [6] 0.083 | givinostat -0.059 | barasertib -0.107 | [7] 0.164 | volasertib 0.435 | [8] -0.001 | epoxomicin -0.171 | [9] -0.011 | [10] 0.174 | [11] -0.069 | rosiglitazone -0.102 | [12] 0.197 | [13] 0.18

XPO7 (UniProt E7ESC6)
inactive: [1] -0.004 | [2] -0.009 | [3] 0.019 | [4] 0.024 | Nexturastat A 0.006 | vemurafenib 0.022 | [5] 0.052 | [6] -0.006 | givinostat -0.046 | barasertib 0.02 | [7] -0.087 | volasertib -0.192 | [8] 0.051 | epoxomicin 0.032 | [9] 0.002 | [10] -0.01 | [11] 0.004 | rosiglitazone 0.005 | [12] -0.078 | [13] -0.025

YME1L1 (UniProt Q96TA2)
inactive: [1] -0.032 | [2] 0.042 | [3] 0.002 | [4] 0.019 | Nexturastat A 0.008 | vemurafenib -0.03 | [5] -0.027 | [6] -0.011 | givinostat 0.018 | barasertib -0.003 | [7] -0.017 | volasertib 0.003 | [8] -0.019 | epoxomicin -0.038 | [9] -0.005 | [10] 0.046 | [11] -0.036 | rosiglitazone -0.007 | [12] 0 | [13] -0.111

ZNF207 isoform 4 (UniProt O43670)
inactive: [1] 0.02 | [2] -0.012 | [3] 0.083 | [4] 0.043 | Nexturastat A -0.03 | vemurafenib 0.051 | [5] 0.041 | [6] -0.007 | givinostat 0.032 | barasertib -0.074 | [7] -0.001 | volasertib 0.032 | [8] -0.003 | epoxomicin 0.016 | [9] 0.012 | [10] -0.076 | [11] 0.025 | rosiglitazone 0 | [12] 0.002 | [13] -0.096

YBX3 (UniProt P16989)
inactive: [1] -0.026 | [2] 0.017 | [3] -0.105 | [4] -0.119 | Nexturastat A 0.348 | vemurafenib -0.034 | [5] -0.099 | [6] 0.089 | givinostat -0.053 | barasertib -0.166 | [7] 0.252 | volasertib 0.38 | [8] -0.016 | epoxomicin -0.194 | [9] 0.046 | [10] 0.194 | [11] -0.085 | rosiglitazone -0.154 | [12] 0.165 | [13] 0.301

YTHDF3 (UniProt Q7Z739)
inactive: [1] 0.032 | [2] 0.017 | [3] -0.046 | [4] 0.015 | Nexturastat A 0.029 | vemurafenib 0.007 | [5] -0.004 | [6] -0.015 | givinostat -0.002 | barasertib -0.025 | [7] 0.074 | volasertib -0.027 | [8] 0.03 | epoxomicin -0.031 | [9] 0.015 | [10] 0.005 | [11] 0.015 | rosiglitazone -0.012 | [12] -0.009 | [13] 0

XRCC4 (UniProt Q13426)
inactive: [1] -0.015 | [2] -0.01 | [3] -0.042 | [4] 0.014 | Nexturastat A -0.046 | vemurafenib -0.016 | [5] -0.065 | [6] 0.009 | givinostat -0.026 | barasertib -0.019 | [7] -0.004 | volasertib 0.028 | [8] -0.034 | epoxomicin 0.007 | [9] 0.028 | [10] -0.046 | [11] -0.012 | rosiglitazone 0.004 | [12] -0.055 | [13] 0.028

ZMIZ1 (UniProt Q9ULJ6)
inactive: [1] -0.066 | [2] -0.062 | [3] -0.008 | [4] -0.011 | Nexturastat A -0.011 | vemurafenib 0.003 | [5] 0.018 | [6] -0.014 | givinostat 0.002 | barasertib 0.016 | [7] -0.022 | volasertib -0.094 | [8] -0.014 | epoxomicin 0.065 | [9] -0.039 | [10] -0.054 | [11] 0.027 | rosiglitazone -0.008 | [12] -0.035 | [13] 0.028

Quoted from the entries so far (2 entries):
YBX3 (UniProt P16989)
inactive: [1] -0.026 | [2] 0.017 | [3] -0.105 | [4] -0.119 | Nexturastat A 0.348 | vemurafenib -0.034 | [5] -0.099 | [6] 0.089 | givinostat -0.053 | barasertib -0.166 | [7] 0.252 | volasertib 0.38 | [8] -0.016 | epoxomicin -0.194 | [9] 0.046 | [10] 0.194 | [11] -0.085 | rosiglitazone -0.154 | [12] 0.165 | [13] 0.301

YTHDF3 (UniProt Q7Z739)
inactive: [1] 0.032 | [2] 0.017 | [3] -0.046 | [4] 0.015 | Nexturastat A 0.029 | vemurafenib 0.007 | [5] -0.004 | [6] -0.015 | givinostat -0.002 | barasertib -0.025 | [7] 0.074 | volasertib -0.027 | [8] 0.03 | epoxomicin -0.031 | [9] 0.015 | [10] 0.005 | [11] 0.015 | rosiglitazone -0.012 | [12] -0.009 | [13] 0

More records follow.

XXYLT1 (UniProt Q8NBI6)
inactive: [1] 0.065 | [2] 0.005 | [3] -0.009 | [4] 0.068 | Nexturastat A -0.063 | vemurafenib 0.003 | [5] 0.05 | [6] -0.035 | givinostat -0.146 | barasertib -0.022 | [7] 0.061 | volasertib -0.018 | [8] -0.008 | epoxomicin -0.024 | [9] -0.01 | [10] -0.047 | [11] -0.024 | rosiglitazone 0.054 | [12] -0.033 | [13] 0.154

YKT6 (UniProt O15498)
inactive: [1] -0.02 | [2] 0.006 | [3] -0.003 | [4] 0.015 | Nexturastat A -0.068 | vemurafenib -0.001 | [5] 0.001 | [6] -0.028 | givinostat -0.042 | barasertib -0.01 | [7] 0.028 | volasertib -0.022 | [8] -0.007 | epoxomicin 0.005 | [9] 0.008 | [10] 0.007 | [11] -0.039 | rosiglitazone 0.013 | [12] -0.09 | [13] 0.016

YRDC (UniProt Q86U90)
inactive: [1] -0.015 | [2] -0.033 | [3] 0.006 | [4] 0.031 | Nexturastat A -0.005 | vemurafenib -0.009 | [5] 0.002 | [6] -0.015 | givinostat 0.053 | barasertib -0.027 | [7] -0.01 | volasertib -0.041 | [8] 0.004 | epoxomicin -0.057 | [9] 0.005 | [10] -0.011 | [11] 0.008 | rosiglitazone 0.029 | [12] -0.044 | [13] -0.121

XRN2 (UniProt Q9H0D6)
inactive: [1] -0.017 | [2] -0.022 | [3] -0.051 | [4] 0.003 | Nexturastat A 0.092 | vemurafenib 0 | [5] -0.022 | [6] -0.019 | givinostat 0.05 | barasertib -0.037 | [7] 0.063 | volasertib 0.132 | [8] -0.022 | epoxomicin -0.037 | [9] -0.032 | [10] 0.071 | [11] -0.028 | rosiglitazone -0.017 | [12] 0.052 | [13] 0.047

From the supplement of paper PMC10849652
